According to PubChem BioAssay AID2685 (National Center for Advancing Translational Sciences (NCATS), 2010):
This is one part of the list. Shown are side measurements of this screen, not its main read-out; they come without a call. Most of these compounds were active or inconclusive in the main read-out, so they are no random draw. The note in brackets gives the kind of curve behind each potency; many fits are weak.

Test: qHTS Assay for Lipid Storage Modulators in Drosophila S3 Cells;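 as to cell number change: cells counted by Cell Tracker Red CMTPX staining in the red channel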
Settings: BODIPY lipid droplet fluorescence, 18-24 h; for cell number change: measured here: cell count max response, cells fed with added oleic acid
Summary of the method: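 Drosophila S3 cells got compounds at several concentrations plus oleic acid (400 uM solution). Laser-scanning cytometry with 488 nm excitation read lipid droplets at 500-530 nm and cells at 575-640 nm. Percent activity was relative to 20 uM Triacsin C.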

[1] = measured here: cell number channel AC50, cells fed with added oleic acid
[2] = measured here: lipid fluorescence (Fed channel) AC50, cells fed with added oleic acid

Row | SMILES | cell number change | AC50 [1] | AC50 [2]
1 | CCOc1ccc(C(=O)/C=C/c2cn(CN3CCN(C)CC3)c3ccccc23)cc1 | -38.4% | 23.1 µM [falling, single point] | 29.1 µM [falling, single point]
2 | CN(C)CCNC(=S)Nc1ccc(-c2nc3ccccc3[nH]2)cc1 | 31% | 6.51 µM [rising, partial curve] | 7.31 µM [rising, partial curve]
3 | CCc1cc(=O)oc2cc(OCC(=O)N3CCCc4ccccc43)ccc12 | 5.76% | – | 18.4 µM [rising, single point]
4 | O=C(CNC(=O)c1ccccc1F)Nc1ccncc1 | -12% | – | –
5 | COc1cc(NC(=O)CSc2ccc(-c3cccnc3)nn2)cc(OC)c1 | 0.348% | – | –
6 | CC(=O)c1ccc(S(=O)(=O)N2CCN(C(=O)CN3C(=O)NC4(CCCC4)C3=O)CC2)cc1 | 2.33% | – | 0.326 µM [falling, partial curve, poor fit]
7 | Cn1c(CN2CCCC2)nc2cc(NC(=O)c3cccs3)ccc21 | -0.975% | – | 0.164 µM [falling, full curve, poor fit]
8 | O=C(NCc1ccco1)c1ccc(N2CCCCC2)c([N+](=O)[O-])c1 | -0.94% | – | 25.9 µM [rising, single point]
9 | COc1ccc(N2CCN(C(=O)C3CCCN(S(=O)(=O)c4cccc5cccnc45)C3)CC2)cc1 (centres undefined) | -1.01% | 0.58 µM [falling, partial curve] | 0.146 µM [rising, full curve, poor fit]
10 | O=C(CCNC(=O)c1ccccc1Cl)Nc1nc(-c2ccccc2Cl)cs1 | -33.2% | 13 µM [falling, single point] | 13 µM [falling, single point]
11 | Cc1ccc(C2N(c3ccc(F)cc3)C(=O)C3CCCN32)cc1 (centres undefined) | 26.2% | – | 10.3 µM [rising, partial curve, poor fit]
12 | Cc1cccc(NC(=O)C2CC(=O)N(c3ccc4c(c3)OCCO4)C2)n1 (centres undefined) | -31.1% | 29.1 µM [falling, single point] | 32.6 µM [falling, single point]
13 | CC1CCCCC1NC(=O)C1CCN(S(=O)(=O)N2CCCCCC2)CC1 (centres undefined) | -10.7% | – | 0.103 µM [falling, full curve, poor fit]
14 | COc1cc(NC(=O)c2ccccc2Cl)c(OC)cc1NC(=O)CN1CCOCC1 | 12.2% | 3.26 µM [rising, single point] | 0.092 µM [rising, full curve, poor fit]
15 | CCCCNC(=O)C(=O)N/N=C/c1ccc(C(=O)OC)cc1 | -18.4% | – | 16.4 µM [falling, partial curve, poor fit]
16 | CCOc1cc(C2NC(=O)NC(O)(C(F)(F)F)C2C(=O)c2ccccc2)ccc1OC (centres undefined) | -125% | 7.31 µM [falling, partial curve] | 0.461 µM [falling, single point]
17 | COc1ccc(OC)c(C2=NS(=O)(=O)N(C)C(C(=O)Nc3ccc(F)cc3F)=C2)c1 | -12.2% | – | –
18 | CCN(CC(=O)Nc1ccc(OC)cc1)C(=O)c1ccc(NS(=O)(=O)c2ccc(C(C)=O)cc2)cc1 | 17.3% | – | –
19 | O=C(Nc1cccc(C(F)(F)F)c1)c1cccnc1N1CCN(c2ccccc2)CC1 | -4.82% | 0.461 µM [rising, partial curve] | 0.461 µM [rising, full curve]

Row | SMILES | cell number change | AC50 [1] | AC50 [2]
20 | O=C(NCc1cccnc1)C(=O)N/N=C/c1ccc([N+](=O)[O-])cc1 | -18.3% | – | 6.51 µM [falling, single point]
21 | CCOC(=O)[C@H]1[C@H]2COc3ccccc3[C@@H]2N2C(=O)[C@@H](CO)NC(=O)[C@@]12C | -4.41% | – | 2.91 µM [rising, partial curve]
22 | Cc1cc(C(=O)NC(CC(C)C)C(=O)O)cc(C)c1[N+](=O)[O-] (centres undefined) | 35.5% | 16.4 µM [rising, single point] | 0.0146 µM [falling, full curve]
23 | Cc1ccc(-c2nnc3ccc(SCC(=O)Nc4cc(C)on4)nn23)cc1 | 1.9% | – | –
24 | O=C(NC1CC(=O)N(c2ccccc2)C1)C1CC1 (centres undefined) | -27.7% | – | –
25 | Cc1cc(OCC(=O)NCc2cccnc2)c2c(C)c(Cc3ccccc3)c(=O)oc2c1 | -12.5% | – | 29.1 µM [falling, single point]
26 | S=C1NCN(Cc2cccnc2)CN1 | 2.75% | 5.17 µM [falling, single point] | 2.31 µM [falling, partial curve, poor fit]
27 | O=C(O)CCc1ccc(-c2ccccc2)n1Cc1ccco1 | -12% | – | 6.51 µM [falling, single point]
28 | O=C(CC1OC(=O)c2ccccc21)c1ccco1 (centres undefined) | -28.5% | – | 0.517 µM [falling, full curve]
29 | C/C(=N\NC(=O)CNC(=O)c1ccc(F)cc1)c1ccco1 | -11.3% | – | 29.1 µM [rising, single point]
30 | COc1ccc(Nc2oc(COc3ccccc3F)nc2C#N)cc1 | -0.962% | – | 1.16 µM [falling, single point]
31 | CCN(CC(=O)NC1CCS(=O)(=O)C1)C(C)C(=O)Nc1ccc(F)cc1 (centres undefined) | 13.2% | 7.31 µM [falling, single point] | 9.2 µM [rising, partial curve]
32 | CC(=O)c1cccc(NC(=O)COC(=O)COc2ccccc2C)c1 | -14.8% | – | 29.1 µM [falling, single point]
33 | Cc1ccc(OCC(=O)n2nc(C)cc2C)c(Br)c1 | 26.1% | – | 0.116 µM [rising, full curve, poor fit]
34 | CCOc1ccccc1NC(=O)CC1Nc2cc(C)c(C)cc2NC1=O (centres undefined) | 180% | – | 18.4 µM [rising, partial curve]
35 | CCN(CC)C(=O)Cn1cc(C(=O)C(=O)N2CCN(c3ccccc3)CC2)c2ccccc21 | 3.24% | – | 29.1 µM [rising, single point]
36 | Cc1cccc(N(CC(O)CON=C2c3ccccc3-c3ccccc32)S(C)(=O)=O)c1 (centres undefined) | -62.8% | 20.6 µM [falling, single point] | 32.6 µM [rising, single point]
37 | O=C(NC1(C(F)(F)F)NC(=O)N(Cc2ccco2)C1=O)c1cccnc1 (centres undefined) | 30.1% | 5.8 µM [rising, full curve, poor fit] | 3.26 µM [falling, partial curve]
38 | COc1cccc([C@@H]2Oc3ccc(OC)cc3C(=O)[C@H]2OC(=O)NCc2ccc3c(c2)OCO3)c1 | 4.87% | 4.11 µM [rising, single point] | 0.259 µM [rising, full curve, poor fit]

5 compounds already listed, ordered by count of non-hydrogen atoms, falling.
Row | SMILES | cell number change | AC50 [1] | AC50 [2]
35 | CCN(CC)C(=O)Cn1cc(C(=O)C(=O)N2CCN(c3ccccc3)CC2)c2ccccc21 | 3.24% | – | 29.1 µM [rising, single point]
13 | CC1CCCCC1NC(=O)C1CCN(S(=O)(=O)N2CCCCCC2)CC1 (centres undefined) | -10.7% | – | 0.103 µM [falling, full curve, poor fit]
30 | COc1ccc(Nc2oc(COc3ccccc3F)nc2C#N)cc1 | -0.962% | – | 1.16 µM [falling, single point]
33 | Cc1ccc(OCC(=O)n2nc(C)cc2C)c(Br)c1 | 26.1% | – | 0.116 µM [rising, full curve, poor fit]
26 | S=C1NCN(Cc2cccnc2)CN1 | 2.75% | 5.17 µM [falling, single point] | 2.31 µM [falling, partial curve, poor fit]

More compounds

Row | SMILES | cell number change | AC50 [1] | AC50 [2]
39 | CCc1ccc(N2CC(C(=O)Nc3nnc(CC)s3)CC2=O)cc1 (centres undefined) | 10.2% | – | –
40 | CC1C2CC(C(CN(C)C)/C2=N/O)C1(C)C (centres undefined) | -28.2% | – | 2.91 µM [falling, full curve]
41 | COc1ccc([C@H]2CC(=O)C=C(c3ccc(C)c4ccccc34)C2)cc1 | -14.2% | – | 1.3 µM [falling, partial curve]
42 | NNC(=O)c1[nH]c2ccccc2c1-c1ccccc1 | -1.73% | – | 0.00517 µM [rising, full curve, poor fit]
43 | CCNC(=S)N/N=C/c1c(C)nn(-c2cccc(Cl)c2)c1Cl | -19.1% | – | 6.51 µM [rising, single point]
44 | CCn1c(CCCc2ccc(OC)c(C)c2)n[nH]c1=S | 0.955% | – | –
45 | CC1CCN(c2c(NCC3CCC(C(=O)NCc4ccc(F)cc4)CC3)c(=O)c2=O)CC1 (centres undefined) | -1.9% | – | –
46 | COc1ccc(S(=O)(=O)Nc2cc3c4c(c2)CCC(=O)N4CCC3)cc1C | 52.2% | 2.91 µM [rising, partial curve] | –
47 | CCCN1CCN(CCCNC(=O)CN2C(=O)C(CC)Oc3ccccc32)CC1 (centres undefined) | 21.7% | – | 0.411 µM [falling, full curve]
48 | CS/C(=C\[N+](=O)[O-])Nc1ccc(F)cc1 | 52.8% | 29.1 µM [rising, single point] | 0.517 µM [falling, full curve]
49 | CC(C)c1ccccc1NC(=O)c1cccc(NC(=O)c2ccccc2)c1 | 40.4% | 0.82 µM [rising, full curve] | 5.17 µM [rising, partial curve]
50 | CC1Cc2cc(S(=O)(=O)CCC(=O)NCc3ccco3)ccc2N1C(=O)C1CC1 (centres undefined) | 15.3% | – | –
51 | CC(C)=C1C2C=CC1C(C(=O)Nc1cc(C)ccc1C)C2C(=O)O (centres undefined) | 31.3% | 13 µM [rising, single point] | –
52 | CCc1nccn1CCC(=O)N1CCCC(N2CCN(c3ccccc3F)CC2)C1 (centres undefined) | -6.93% | – | 29.1 µM [rising, single point]
53 | C/C=C/C=N/NC(=O)CN(c1ccc(Br)cc1)S(=O)(=O)c1ccccc1 | 5.14% | – | –
54 | Cc1cccc(C)c1NC(=O)CCCSc1nnc(N)s1 | – | 0.13 µM [rising, full curve, poor fit] | –
55 | CC(=O)Nc1ccc(S(=O)(=O)Nc2nccc(/C=C/c3ccccc3F)n2)cc1 | 1.09% | 0.291 µM [rising, partial curve] | –
56 | COc1cc(C2Nc3cc(Cl)c(S(N)(=O)=O)cc3S(=O)(=O)N2)cc(OC)c1OC (centres undefined) | -40.6% | 29.1 µM [falling, single point] | 1.3 µM [falling, full curve]
57 | Cc1ccc(N2C(=O)C3ON(c4ccccc4)C(CC(C)C)C3C2=O)cc1 (centres undefined) | -9.9% | – | 0.0651 µM [falling, full curve, poor fit]
